Test results: US12590974B2, “Methods and compositions for cardiovascular disease detection and management” (Ohio State Innovation Foundation, priority 2019, dated 2026)
Like-named read-outs stand apart in the source and are kept apart here.

Test system: βII-spectrin fragments (50 kD, 60 kD)
Details: depleted serum

CC(C)c1c(C(=O)Nc2ccccc2)c(-c2ccccc2)c(-c2ccc(F)cc2)n1CC[C@@H](O)C[C@@H](O)CC(=O)O [atorvastatin]
βII-spectrin fragmentation at 50 kD compared to HC (atorvastatin 40 mg (A-40) patients, n=4): decreased
βII-spectrin fragmentation at 50 kD compared to HC (atorvastatin 80 mg (A-80) patients, n=8): increased
βII-spectrin 60 kD band compared to HC (atorvastatin 80 mg (A-80) patients, p<0.01): significantly increased
